Results are given in words; binding and its absence hold for the method and conditions named. Tags and fused reporters may be left off the sequences shown.

For this assay, the target named is T1, 6X His-GST-COUP-TFII LBD fusion protein (human, UniProt P24468 173-414, C174S).
T1 construct: The limits and C174S come from the protein preparation paragraph; also called receptor LBD; source: E. coli BL21 (DE3), purified as a 6X His-GST fusion protein; not shown: 6x Histidine, N-terminal, kept; GST, N-terminal, kept
T1 sequence (looked up): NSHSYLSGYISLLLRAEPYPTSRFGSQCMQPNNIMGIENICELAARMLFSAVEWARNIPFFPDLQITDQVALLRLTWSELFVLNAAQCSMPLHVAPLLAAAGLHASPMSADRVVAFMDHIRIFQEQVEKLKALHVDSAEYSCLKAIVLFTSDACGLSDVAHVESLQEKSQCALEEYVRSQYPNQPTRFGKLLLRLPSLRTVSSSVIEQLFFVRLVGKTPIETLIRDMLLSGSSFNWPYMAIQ
Kind of assay: AlphaScreen or HTRF; approximately 0.4 μM 6X His-GST receptor LBD and 0.1 μM biotinylated peptide, 20 μg/ml donor and acceptor beads; 50 mM MOPS, 50 mM NaF, 50 mM CHAPS, 0.1 mg/ml bovine serum albumin, pH 7.4; no ligand added; both purified. (Bead proximity is the source of the signal in Alpha formats.)

In the case of AENQRGPLESKGHKKLLQLLTSS (biotin (position not given)) [biotinylated SRC3–1 peptide], the binding result was “no binding (condition: in the absence of ligand)”.

(Values after paper PMC2535662, “Identification of COUP-TFII Orphan Nuclear Receptor as a Retinoic Acid–Activated Receptor” (PLoS Biology, 2008).)
